Data on 38 variants can be found in the supplement of paper PMC6445147.

The labels stand for the following.
B1: human tRNA-Pro; a variant is named by its letters at N, in order (parent)
chain: GGCTCGTTGGTCTAGNGGTATGATTCTCGCTTAGGGTGCGAGAGGTCCCGGGTTCNNATCCCGGACGAGCCC

This is a noisy data set.

The variants in the data set derive from B1. As to the kind of experiment: tRNA 5' processing efficiency (processed reads / all reads, maximum-likelihood estimate) (fraction); higher = more efficient 5' processing. As to conditions: HEK293T; construct: CMV Pol-II promoter ((+)CMV library, decapped).
For the variant GGCTCGTTGGTCTACGGATATGATTCTCGCTTAGGGTGCGAGAGGTCCCGGGTTCGAATCCCGGACGAGCCC [GGA G15C G18A], the “tRNA 5' processing efficiency” value is 0.2.

Take GGCTCGTTGGTCTAGGTGTATGATTCTCGCTTAGGGTGCGAGAGGTCCCGGGGTTGAATCCCGGACGAGCCC [GGA G17T T53G C55T]: the “tRNA 5' processing efficiency” value is 0.2.

Take GGCTCGTTGGTCTAGGTGTATGATTCTCGCTTAGGGTGCGAGAGGTCCCGGGCTGGAACCCCGGACGAGCCC [GGA G17T T53C C55G T59C]: the “tRNA 5' processing efficiency” value was 0.25.

In the case of GGCTCGTTGGTCTATGGGTATGATTCTCGCTTAGGGTGCGAGAGGTCCCGGGATCGACTCCCGGACGAGCCC [GGA G15T T53A A58C], the “tRNA 5' processing efficiency” value is 0.04.

Take GGCTCGTTGGTCTAGGTGTATGATTCTCGCTTAGGGTGCGAGAGGTCCCGGGTTTGAATCCCGGACGAGCCC [GGA G17T C55T]: the “tRNA 5' processing efficiency” value is 0.25.

Turning to GGCTCGTTGGTCTATGGGTATGATTCTCGCTTAGGGTGCGAGAGGTCCCGGGTTTGAGTCCCGGACGAGCCC [GGA G15T C55T A58G], the “tRNA 5' processing efficiency” value was 0.25.

Regarding GGCTCGTTGGTCTAAGGGTATGATTCTCGCTTAGGGTGCGAGAGGTCCCGGGTGCGAATCCCGGACGAGCCC [GGA G15A T54G], the “tRNA 5' processing efficiency” value is 0.2.

Consider GGCTCGTTGGTCTAGGAGTATGATTCTCGCTTAGGGTGCGAGAGGTCCCGGGTACGACTCCCGGACGAGCCC [GGA G17A T54A A58C], for which the “tRNA 5' processing efficiency” value was 0.25.

Consider GGCTCGTTAGTCTAGTGGTCTGATTCTCGCTTAGGGTGCGAGAGGTCCCGGGATCGAATCCCGGACGAGCCC [TGA G9A A20C T53A], for which the “tRNA 5' processing efficiency” value was 0.33.

For the variant GGCTCGTAGGTCTAGAGGTATGATTCTCACTTAGGGTGCGAGAGGTCCCGGGTTCGAATCCCGGACGAGCCC [AGA T8A G29A], the “tRNA 5' processing efficiency” value was 0.4.

On to GGCTCGTTGGTCTATGGGTATGATTCTCGCTTAGGGTGCGAGAGGTCCCGGGTTCGATTCCCGGACGAGCCC [GGA G15T A58T], for which the “tRNA 5' processing efficiency” value was 0.4.

As to GGCTCGTTGGTCTATGGGTATGATTCTCGCTTAGGGTGCGAGAGGTCCCGGGCTCGAATCCCGGACGAGCCC [GGA G15T T53C], the “tRNA 5' processing efficiency” value is 0.25.

On to GGCTCGTGGGTCTAGGGTTGTGATTCTCGCTTAGGGTGCGAGAGGTCCCGGGTTCGAAGCCCGGACGAGCCC [GGA T8G G18T A20G T59G], for which the “tRNA 5' processing efficiency” value is 0.17.

Take GGCTCGTTAGTCTAGGGGTTTGATTCTCGCTTAGGGTGCGAGAGGTCCCGGGTTCGAATCCCGGACGAGCCC [GGA G9A A20T]: the “tRNA 5' processing efficiency” value was 0.25.

Consider GGCTCGTTGGTCTATGCGTATGATTCTCGCTTAGGGTGCGAGAGGTCCCGGGAACGAATCCCGGACGAGCCC [GGA G15T G17C T53A T54A], for which the “tRNA 5' processing efficiency” value is 0.2.

Take GGCTCGTTGGTCTACGGTTATGATTCTCGCTTAGGGTGCGAGAGGTCCCGGGTTCGATTCCCGGACGAGCCC [GGA G15C G18T A58T]: the “tRNA 5' processing efficiency” value was 0.2.

For the variant GGCTCGTTTGTCTCGGTGTATGATTCTCGCTTAGGGTGCGAGAGGTCCCGGGTTCGAACCCCGGACGAGCCC [GGA G9T A14C G17T T59C], the “tRNA 5' processing efficiency” value was 0.33.

On to GGCTCGTGGGTCTAGGGGTATGATTCTCGCTTAGGGTGCGAGAGGTCCCGGGTTAGAATCCCGGACGAGCCC [GGA T8G C55A], for which the “tRNA 5' processing efficiency” value is 0.25.

For the variant GGCTCGTTAGTCTGGAGGTATGATTCTCGCTTAGGGTGCGAGAGGTCCCGGGTGCGACGCCCGGACGAGCCC [AGA G9A A14G T54G A58C T59G], the “tRNA 5' processing efficiency” value was 0.25.

As to GGCTCGTTCGTCTAGAGGTTTGATTCTCGCTTAGGGTGCGAGAGGTCCCGGGGTCGAATCCCGGACGAGCCC [AGA G9C A20T T53G], the “tRNA 5' processing efficiency” value was 0.14.

Consider GGCTCGTCGGTCTATGGGTATGATTCTCGCTTAGGGTGCGAGAGGTCCCGGGTTCGAATCCCGGACGAGCCC [GGA T8C G15T], for which the “tRNA 5' processing efficiency” value is 0.4.

Take GGCTCGTGTGTCTAGAGGTATGATTCTCGCTTAGGGTGCGAGAGGTCCCGGGCTTGAATCCCGGACGAGCCC [AGA T8G G9T T53C C55T]: the “tRNA 5' processing efficiency” value is 0.33.

For the variant GGCTCGTGGGTCTAGATGGATGATTCTCGCTTAGGGTGCGAGAGGTCCCGGGGTGGAATCCCGGACGAGCCC [AGA T8G G17T T19G T53G C55G], the “tRNA 5' processing efficiency” value was 0.29.

Take GGCTCGTTAGTCTGCGGGTATGATTCTCGCTTAGGGTGCGAGAGGTCCCGGGTTAGAGTCCCGGACGAGCCC [GGA G9A A14G G15C C55A A58G]: the “tRNA 5' processing efficiency” value was 0.25.

For GGCTCGTTGGTCTAGGGTTATGATTCTCGCTTAGGGTGCGAGAGGTCCCGGGATCGAATCCCGGACGAGCCC [GGA G18T T53A], the “tRNA 5' processing efficiency” value was 0.38.

Regarding GGCTCGTTTGTCTGGGGGTATGATTCTCGCTTAGGGTGCGAGAGGTCCCGGGTTCGAATCCCGGACGAGCCC [GGA G9T A14G], the “tRNA 5' processing efficiency” value was 0.25.

As for GGCTCGTGGGTCTAGGGTTATGATTCTCGCTTAGGGTGCGAGAGGTCCCGGGTTCGACTCCCGGACGAGCCC [GGA T8G G18T A58C], the “tRNA 5' processing efficiency” value was 0.22.

As to GGCTCGTTCGTCTAGGGGTATGATTCTCGCTTAGGGTGCGAGAGGTCCCGGGGTCGAATCCCGGACGAGCCC [GGA G9C T53G], the “tRNA 5' processing efficiency” value was 0.5.

Regarding GGCTCGTTGGTCTAAGGGTCTGATTCTCGCTTAGGGTGCGAGAGGTCCCGGGTTCGAATCCCGGACGAGCCC [GGA G15A A20C], the “tRNA 5' processing efficiency” value was 0.33.

On to GGCTCGTTTGTCTCGCTGTATGATTCTCGCTTAGGGTGCGAGAGGTCCCGGGTTGGAATCCCGGACGAGCCC [CGA G9T A14C G17T C55G], for which the “tRNA 5' processing efficiency” value was 0.07.

With GGCTCGTTCGTCTTGTGGTATGATTCTCGCTTAGGGTGCGAGAGGTCCCGGGTGCGAATCCCGGACGAGCCC [TGA G9C A14T T54G], the “tRNA 5' processing efficiency” value is 0.6.

Consider GGCTCGTTAGTCTAGGGGTATGATTCTCGCTTAGGGTGCGAGAGGTCCCGGGTGCGACTCCCGGACGAGCCC [GGA G9A T54G A58C], for which the “tRNA 5' processing efficiency” value was 0.43.

For GGCTCGTGGGTCTAGGCGTATGATTCTCGCTTAGGGTGCGAGAGGTCCCGGGTACGATTCCCGGACGAGCCC [GGA T8G G17C T54A A58T], the “tRNA 5' processing efficiency” value is 0.33.

For GGCTCGTTCGTCTACGGGTATGATTCTCGCTTAGGGTGCGAGAGGTCCCGGGTTCGAATCCCGGACGAGCCC [GGA G9C G15C], the “tRNA 5' processing efficiency” value is 0.33.

With GGCTCGTTAGTCTATAGGTGTGATTCTCGCTTAGGGTGCGAGAGGTCCCGGGATCGAATCCCGGACGAGCCC [AGA G9A G15T A20G T53A], the “tRNA 5' processing efficiency” value is 0.25.

As to GGCTCGTTGGTCTAAGGGTATGATTCTCGCTTAGGGTGCGAGAGGTCCCGGGTTCGAACCCCGGACGAGCCC [GGA G15A T59C], the “tRNA 5' processing efficiency” value was 0.25.

Regarding GGCTCGTTGGTCTAAGGGTATGATTCTCGCTTAGGGTGCGAGAGGTCCCGGGTTCGAAGCCCGGACGAGCCC [GGA G15A T59G], the “tRNA 5' processing efficiency” value is 0.4.

As for GGCTCGTTGGTCTAGGTGTATGATTCTCGCTTAGGGTGCGAGAGGTCCCGGGTTGGAAACCCGGACGAGCCC [GGA G17T C55G T59A], the “tRNA 5' processing efficiency” value was 0.25.
